# According to PMC8635029 (Frontiers in Pharmacology, 2021):
# Counter-ions that a name gives are not always drawn.
# Tested on: ICR mice
# Assay: Acetic acid-induced writhing test
# Assay type: in vivo
# Conditions: 10 mg/kg s.c., 30 min post-dosing
# Protocol: ICR mice (half male and half female) were used in this assay. […] A writhe was defined as a wave of contraction of the abdominal musculature followed by extension of the hind limbs ([Wang et al., 2018]). The percentage inhibition of writhes was calculated by the following formula: % antinociception = (Nv−Nt)/Nv × 100, where Nv is the number of writhes in vehicle group and Nt is the number of writhes in treatment groups.
structure (smiles),measurement,value
"CN1CC[C@]23c4c5ccc(O)c4O[C@H]2[C@@H](O)C=C[C@H]3[C@H]1C5 [morphine, morphine sulfate]",effect on acetic acid-induced pain behaviors,completed suppressed
